These are yes or no findings as the source states them, for the method shown. In cells and extracts the contact can be indirect. These calls come from enrichment with a bait or labelling near it, and not all partners need be listed.
Biological target: T1, eukaryotic translation initiation factor 2A (human (endogenous in Mel-ST and Mel-STR)) (UniProt Q9BY44)
T1 sequence: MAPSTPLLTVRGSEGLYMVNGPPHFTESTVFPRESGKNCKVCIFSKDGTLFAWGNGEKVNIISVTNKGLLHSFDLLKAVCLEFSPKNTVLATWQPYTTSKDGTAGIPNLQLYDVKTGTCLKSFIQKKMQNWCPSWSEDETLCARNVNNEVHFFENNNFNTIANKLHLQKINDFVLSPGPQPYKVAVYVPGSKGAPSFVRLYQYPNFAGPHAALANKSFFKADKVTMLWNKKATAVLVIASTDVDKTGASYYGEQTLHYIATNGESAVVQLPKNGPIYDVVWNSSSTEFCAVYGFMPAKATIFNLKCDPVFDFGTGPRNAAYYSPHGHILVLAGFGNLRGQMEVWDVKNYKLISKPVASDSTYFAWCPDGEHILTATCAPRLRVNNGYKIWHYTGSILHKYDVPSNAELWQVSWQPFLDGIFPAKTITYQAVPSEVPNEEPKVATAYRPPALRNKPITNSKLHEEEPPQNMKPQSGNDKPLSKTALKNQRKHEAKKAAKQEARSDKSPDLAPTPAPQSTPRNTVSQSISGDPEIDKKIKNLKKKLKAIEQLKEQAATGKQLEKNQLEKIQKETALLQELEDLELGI
Test: affinity purification with mass spectrometry; IP of endogenous eIF2A (anti-eIF2A Abcam ab169528 on Dynabeads A) from Mel-ST and Mel-STR lysates, IgG as negative control, with or without RNase I (100 U, 15 min, 25°C), washes in 1x NET buffer, on-bead trypsin digestion, LC-MS/MS; SAINT, BFDR ≤ 0.05

Sequences of proteins named here, by UniProt entry; tags and fusion partners are left off.
UniProt Q99996: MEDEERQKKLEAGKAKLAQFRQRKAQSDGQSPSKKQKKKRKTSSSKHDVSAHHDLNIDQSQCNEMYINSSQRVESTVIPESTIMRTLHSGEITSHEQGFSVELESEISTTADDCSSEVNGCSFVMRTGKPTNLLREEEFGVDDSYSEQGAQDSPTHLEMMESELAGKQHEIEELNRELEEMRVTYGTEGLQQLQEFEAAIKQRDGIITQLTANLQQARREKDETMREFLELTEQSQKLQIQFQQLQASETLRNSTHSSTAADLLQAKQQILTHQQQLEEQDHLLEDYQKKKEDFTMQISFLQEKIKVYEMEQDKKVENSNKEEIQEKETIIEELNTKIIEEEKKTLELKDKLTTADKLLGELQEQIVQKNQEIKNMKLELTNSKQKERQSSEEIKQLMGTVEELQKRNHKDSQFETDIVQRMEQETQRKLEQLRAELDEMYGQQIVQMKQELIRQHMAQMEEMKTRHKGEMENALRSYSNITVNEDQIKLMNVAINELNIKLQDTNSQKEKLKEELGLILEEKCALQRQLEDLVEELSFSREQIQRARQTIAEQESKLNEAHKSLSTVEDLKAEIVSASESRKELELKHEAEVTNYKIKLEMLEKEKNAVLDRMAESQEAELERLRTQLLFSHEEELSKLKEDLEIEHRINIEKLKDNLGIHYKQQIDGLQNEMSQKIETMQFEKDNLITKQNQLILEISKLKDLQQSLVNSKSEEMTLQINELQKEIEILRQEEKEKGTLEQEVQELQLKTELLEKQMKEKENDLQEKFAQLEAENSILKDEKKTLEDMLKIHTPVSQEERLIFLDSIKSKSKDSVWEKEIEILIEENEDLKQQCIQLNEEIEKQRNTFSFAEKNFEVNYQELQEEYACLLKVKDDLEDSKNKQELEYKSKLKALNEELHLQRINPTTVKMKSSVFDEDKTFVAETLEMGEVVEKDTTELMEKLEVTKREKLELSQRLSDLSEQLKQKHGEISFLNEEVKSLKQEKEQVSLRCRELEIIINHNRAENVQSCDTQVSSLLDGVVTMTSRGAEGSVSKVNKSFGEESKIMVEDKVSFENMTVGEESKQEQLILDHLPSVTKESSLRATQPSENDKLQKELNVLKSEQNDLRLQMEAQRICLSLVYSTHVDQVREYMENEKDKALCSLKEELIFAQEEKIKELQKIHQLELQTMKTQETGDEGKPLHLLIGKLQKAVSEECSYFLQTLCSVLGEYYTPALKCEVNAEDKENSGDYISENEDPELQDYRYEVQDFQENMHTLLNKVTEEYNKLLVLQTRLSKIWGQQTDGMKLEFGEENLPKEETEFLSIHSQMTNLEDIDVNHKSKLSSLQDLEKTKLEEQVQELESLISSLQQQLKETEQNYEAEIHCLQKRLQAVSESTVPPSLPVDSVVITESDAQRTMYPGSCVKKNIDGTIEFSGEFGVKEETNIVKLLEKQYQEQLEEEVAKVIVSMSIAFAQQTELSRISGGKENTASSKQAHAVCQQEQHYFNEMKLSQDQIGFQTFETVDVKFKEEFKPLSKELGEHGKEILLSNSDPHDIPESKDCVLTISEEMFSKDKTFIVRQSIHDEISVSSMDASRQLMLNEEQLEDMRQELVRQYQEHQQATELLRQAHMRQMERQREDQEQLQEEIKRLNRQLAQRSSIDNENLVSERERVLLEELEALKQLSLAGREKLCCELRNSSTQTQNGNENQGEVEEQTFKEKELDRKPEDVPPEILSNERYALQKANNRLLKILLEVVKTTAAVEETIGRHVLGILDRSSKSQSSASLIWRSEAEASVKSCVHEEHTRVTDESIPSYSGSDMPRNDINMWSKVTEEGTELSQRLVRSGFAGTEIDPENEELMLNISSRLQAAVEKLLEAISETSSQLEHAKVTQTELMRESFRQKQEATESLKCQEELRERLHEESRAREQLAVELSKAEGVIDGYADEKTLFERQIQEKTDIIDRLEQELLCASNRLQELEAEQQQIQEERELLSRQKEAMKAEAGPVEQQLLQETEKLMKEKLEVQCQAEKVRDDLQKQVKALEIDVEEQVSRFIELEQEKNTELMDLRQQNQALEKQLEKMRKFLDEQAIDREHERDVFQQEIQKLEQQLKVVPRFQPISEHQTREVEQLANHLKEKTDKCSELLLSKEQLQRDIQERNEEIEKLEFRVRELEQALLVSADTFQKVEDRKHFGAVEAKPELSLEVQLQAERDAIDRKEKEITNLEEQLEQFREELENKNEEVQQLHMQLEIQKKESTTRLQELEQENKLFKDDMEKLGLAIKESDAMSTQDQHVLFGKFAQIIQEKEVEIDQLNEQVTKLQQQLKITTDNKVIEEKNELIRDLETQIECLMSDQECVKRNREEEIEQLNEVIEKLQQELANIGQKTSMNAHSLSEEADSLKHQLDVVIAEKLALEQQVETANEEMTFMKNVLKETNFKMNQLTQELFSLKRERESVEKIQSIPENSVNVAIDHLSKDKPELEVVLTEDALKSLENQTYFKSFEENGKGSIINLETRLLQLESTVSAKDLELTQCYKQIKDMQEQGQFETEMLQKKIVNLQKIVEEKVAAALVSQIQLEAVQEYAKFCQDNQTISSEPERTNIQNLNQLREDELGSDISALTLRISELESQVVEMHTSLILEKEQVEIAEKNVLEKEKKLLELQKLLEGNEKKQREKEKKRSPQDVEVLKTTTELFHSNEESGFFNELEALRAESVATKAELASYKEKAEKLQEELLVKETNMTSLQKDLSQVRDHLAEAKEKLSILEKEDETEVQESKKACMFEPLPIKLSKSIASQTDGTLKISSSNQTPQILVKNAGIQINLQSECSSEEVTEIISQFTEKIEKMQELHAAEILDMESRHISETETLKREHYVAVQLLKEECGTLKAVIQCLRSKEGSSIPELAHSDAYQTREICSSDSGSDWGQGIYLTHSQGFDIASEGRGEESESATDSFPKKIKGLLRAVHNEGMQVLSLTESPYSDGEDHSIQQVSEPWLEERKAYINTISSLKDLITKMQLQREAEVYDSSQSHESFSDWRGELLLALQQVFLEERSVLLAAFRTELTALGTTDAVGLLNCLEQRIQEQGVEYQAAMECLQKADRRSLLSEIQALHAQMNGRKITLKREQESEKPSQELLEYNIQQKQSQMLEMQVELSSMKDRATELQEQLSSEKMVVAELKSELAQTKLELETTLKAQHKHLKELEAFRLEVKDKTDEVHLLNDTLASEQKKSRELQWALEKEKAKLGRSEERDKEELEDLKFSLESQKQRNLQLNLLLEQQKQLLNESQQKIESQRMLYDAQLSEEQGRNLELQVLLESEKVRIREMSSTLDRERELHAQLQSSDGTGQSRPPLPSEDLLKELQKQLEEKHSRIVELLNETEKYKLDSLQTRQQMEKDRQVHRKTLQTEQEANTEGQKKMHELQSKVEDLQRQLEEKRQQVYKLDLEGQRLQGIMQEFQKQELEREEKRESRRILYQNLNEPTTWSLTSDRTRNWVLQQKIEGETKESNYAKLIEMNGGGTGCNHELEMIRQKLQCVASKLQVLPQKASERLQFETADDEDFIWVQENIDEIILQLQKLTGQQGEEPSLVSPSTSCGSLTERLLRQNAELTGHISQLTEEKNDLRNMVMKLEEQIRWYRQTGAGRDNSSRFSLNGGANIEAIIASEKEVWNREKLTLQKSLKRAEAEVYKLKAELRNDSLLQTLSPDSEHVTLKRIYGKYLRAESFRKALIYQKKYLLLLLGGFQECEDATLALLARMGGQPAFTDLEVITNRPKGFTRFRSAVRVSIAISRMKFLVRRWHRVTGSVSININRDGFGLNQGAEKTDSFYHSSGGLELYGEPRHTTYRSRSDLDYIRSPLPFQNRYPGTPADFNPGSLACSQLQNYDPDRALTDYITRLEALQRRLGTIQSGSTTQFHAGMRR
UniProt P23258: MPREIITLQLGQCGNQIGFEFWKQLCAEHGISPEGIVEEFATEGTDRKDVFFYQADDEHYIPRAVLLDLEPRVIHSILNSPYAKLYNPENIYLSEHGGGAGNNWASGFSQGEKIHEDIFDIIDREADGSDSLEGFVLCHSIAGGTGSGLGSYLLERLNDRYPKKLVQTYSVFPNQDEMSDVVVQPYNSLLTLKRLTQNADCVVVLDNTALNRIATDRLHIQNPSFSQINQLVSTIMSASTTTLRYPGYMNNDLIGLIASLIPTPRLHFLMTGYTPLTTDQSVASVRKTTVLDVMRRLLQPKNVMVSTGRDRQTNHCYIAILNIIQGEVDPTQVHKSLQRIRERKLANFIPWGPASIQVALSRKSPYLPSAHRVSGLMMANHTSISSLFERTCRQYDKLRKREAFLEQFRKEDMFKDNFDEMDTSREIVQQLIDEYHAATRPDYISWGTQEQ
UniProt Q15154: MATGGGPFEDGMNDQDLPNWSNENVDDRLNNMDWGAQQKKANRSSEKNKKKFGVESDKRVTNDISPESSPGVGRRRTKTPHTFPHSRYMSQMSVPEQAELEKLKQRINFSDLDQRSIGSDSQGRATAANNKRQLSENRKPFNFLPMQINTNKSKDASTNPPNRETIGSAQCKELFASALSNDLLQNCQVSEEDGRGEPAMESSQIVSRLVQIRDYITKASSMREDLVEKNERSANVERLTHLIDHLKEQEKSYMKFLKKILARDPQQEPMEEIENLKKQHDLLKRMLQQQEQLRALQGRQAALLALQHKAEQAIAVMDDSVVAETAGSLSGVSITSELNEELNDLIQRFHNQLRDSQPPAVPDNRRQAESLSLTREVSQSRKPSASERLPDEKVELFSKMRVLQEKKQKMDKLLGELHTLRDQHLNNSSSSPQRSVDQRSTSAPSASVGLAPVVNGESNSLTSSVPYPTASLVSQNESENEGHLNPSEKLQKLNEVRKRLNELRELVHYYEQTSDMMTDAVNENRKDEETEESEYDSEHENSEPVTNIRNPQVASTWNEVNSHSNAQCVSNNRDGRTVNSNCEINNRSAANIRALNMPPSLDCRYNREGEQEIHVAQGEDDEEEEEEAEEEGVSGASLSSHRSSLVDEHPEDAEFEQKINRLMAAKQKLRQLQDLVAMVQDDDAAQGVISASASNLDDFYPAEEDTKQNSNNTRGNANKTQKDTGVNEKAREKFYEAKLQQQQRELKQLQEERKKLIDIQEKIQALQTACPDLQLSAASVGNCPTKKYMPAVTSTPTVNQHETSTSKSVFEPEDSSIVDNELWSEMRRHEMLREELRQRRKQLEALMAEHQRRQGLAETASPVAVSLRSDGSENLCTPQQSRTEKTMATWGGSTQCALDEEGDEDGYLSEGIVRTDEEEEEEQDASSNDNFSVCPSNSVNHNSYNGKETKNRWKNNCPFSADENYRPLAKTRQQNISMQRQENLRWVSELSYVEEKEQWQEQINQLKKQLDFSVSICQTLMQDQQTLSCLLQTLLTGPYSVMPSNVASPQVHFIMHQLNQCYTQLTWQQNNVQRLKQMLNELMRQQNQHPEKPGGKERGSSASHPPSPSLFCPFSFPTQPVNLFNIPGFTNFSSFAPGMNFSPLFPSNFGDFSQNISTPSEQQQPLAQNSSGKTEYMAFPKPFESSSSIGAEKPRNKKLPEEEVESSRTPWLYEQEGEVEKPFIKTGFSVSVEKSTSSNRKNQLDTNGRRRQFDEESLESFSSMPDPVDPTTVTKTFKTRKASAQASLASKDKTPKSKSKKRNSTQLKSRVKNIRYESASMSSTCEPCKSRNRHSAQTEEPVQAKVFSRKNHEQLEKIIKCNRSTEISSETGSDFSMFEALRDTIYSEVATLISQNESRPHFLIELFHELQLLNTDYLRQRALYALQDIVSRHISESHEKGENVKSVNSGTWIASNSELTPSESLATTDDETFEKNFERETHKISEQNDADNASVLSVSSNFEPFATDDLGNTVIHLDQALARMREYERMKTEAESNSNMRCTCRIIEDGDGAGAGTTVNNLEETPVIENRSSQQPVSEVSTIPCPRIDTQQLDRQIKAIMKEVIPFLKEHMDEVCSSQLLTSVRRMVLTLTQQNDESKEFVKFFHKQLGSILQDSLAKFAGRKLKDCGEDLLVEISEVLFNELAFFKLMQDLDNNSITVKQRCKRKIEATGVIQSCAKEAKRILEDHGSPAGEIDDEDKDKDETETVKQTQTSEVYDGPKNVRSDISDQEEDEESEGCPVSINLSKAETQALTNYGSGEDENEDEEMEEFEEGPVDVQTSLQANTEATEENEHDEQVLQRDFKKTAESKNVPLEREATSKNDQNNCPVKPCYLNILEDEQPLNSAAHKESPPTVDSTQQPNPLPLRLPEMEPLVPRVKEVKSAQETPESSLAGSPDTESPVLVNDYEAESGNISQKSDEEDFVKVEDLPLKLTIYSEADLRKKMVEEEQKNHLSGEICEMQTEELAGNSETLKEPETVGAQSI

Row | binding | Substance
1 | binds | AKAP9 (from UniProt Q99996 1-3907)
2 | binds | CDK5RAP2 (from UniProt Q96SN8 1-1893)
3 | binds | CEP350 (from UniProt Q5VT06 1-3117)
4 | binds | NEDD1 (from UniProt Q8NHV4 1-660)

The remaining lines, values behind:

Row | Substance | binding
5 | NIN (from UniProt Q8N4C6 1-2090) | binds
6 | TUBG1 (from UniProt P23258 1-451) | binds
7 | TUBGCP2 (from UniProt Q9BSJ2 1-902) | binds
8 | TUBGCP3 (from UniProt Q96CW5 1-907) | binds
9 | pericentriolar material 1 (from UniProt Q15154 1-2024) | binds

From PMC12315956
